34 compounds from PubChem BioAssay AID1487 (National Center for Advancing Translational Sciences (NCATS), 2009) can be followed below.

A short description of the test: qHTS Assay for Modulators of Lamin A Splicing. The following applies: HeLa LMNA splicing GFP/RFP minigene ratio, 48 h. The procedure, abridged:
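S3 HeLa stable clones carrying a lamin A-EGFP splicing minigene plus DsRed2 were seeded at 600 cells/well in Opti-MEM with 2% FBS, pin-dosed and incubated 48 h at 37°C. Acumen cytometry (488 nm) gave the GFP/RFP total-intensity ratio.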

Where [1] appears, read: measured here: GFP splicing reporter channel.
The mark [2] stands for this setting: measured here: RFP viability control channel.

The other results are listed elsewhere or left out. Further columns of the screen follow, without active or inactive calls. Compounds called inactive in the main read-out are mostly missing here. Words in brackets tell the shape of the fitted curve; partial curves, single points and poor fits give uncertain potencies.

On to `CC[C@@H]1O[C@]2(C=C[C@@H]1C)C[C@H]1C[C@H](CC=C(C)[C@@H](O[C@@H]3C[C@H](OC)[C@H](O[C@@H]4C[C@H](OC)[C@H](O)[C@H](C)O4)[C@H](C)O3)[C@@H](C)C=CC=C3CO[C@@H]4[C@@H](O)C(C)=C[C@@H](C(=O)O1)[C@]34O)O2`, for which the half-maximal activity concentration (AC50) by setting is: under setting [1], 0.0141 µM [falling, full curve, poor fit]; under setting [2], 0.00447 µM [falling, full curve, poor fit]. As for `N=c1c2c(-c3ccccc3)c(-c3ccccc3)oc2ncn1CCCN1CCOCC1`, under setting [1], the AC50 was 7.08 µM [rising, partial curve]. Take `CS(=O)(=O)c1ccccc1C(=O)NC1CCCc2ccccc21` (stereo not given): the AC50 under setting [2] is 6.31 µM [rising, partial curve, poor fit]. As for `CN1c2ccccc2C(C)(C)C12C=Nc1c(cc(N3CCOCC3)c3ccccc13)O2` (stereo not given), the AC50 was 11.2 µM [falling, single point] under setting [1] and 8.91 µM [falling, partial curve] under setting [2].

Regarding `O=C(Cn1c(SCC(=O)Nc2ccc(F)cc2)nc2ccccc21)NCc1ccccc1Cl`, the AC50 under setting [2] was 35.5 µM [falling, single point]. Still for that read-out and setting: as for `COc1ccc(-c2cc3nc(C)c(CCC(=O)N4CCN(c5ccccn5)CC4)c(C)n3n2)c(OC)c1`, the figure is 0.891 µM [falling, full curve, poor fit]. With `CC(C)(C)n1nc2c(c1NC(=O)c1ccc(S(=O)(=O)N3CCCC3)cc1)CSC2`, the AC50 under setting [1] was 10 µM [rising, partial curve, poor fit]. Consider `O=C(/C=C\c1ccco1)Nc1cc([N+](=O)[O-])ccc1F`, for which the concentration at half-maximal activity (AC50) under setting [1] is 0.00447 µM [falling, full curve, poor fit].

With `Cc1cccc(OCCCSc2nc3ccccc3[nH]2)c1`, the AC50 under setting [1] is 0.00447 µM [rising, full curve, poor fit] and the concentration at half-maximal activity (AC50) under setting [2] is 10 µM [rising, partial curve]. On to `C[C@@H](Nc1nc(-c2ccccc2)nc2c1oc1ccccc12)C(=O)O`, for which the AC50 under setting [2] is 22.4 µM [rising, single point]. Take `CCCCCCc1cc2cc(-c3nnc(-c4ccccc4O)o3)c(=O)oc2cc1O`: the AC50 under setting [2] was 12.6 µM [rising, single point]. Take `O=C(N/N=C/c1ccccn1)c1cc(-c2ccncc2)nc2ccccc12`: the AC50 is, setting by setting: under setting [1], 14.1 µM [rising, single point]; under setting [2], 25.1 µM [rising, single point].

In the case of `COc1cc(OC)cc(C(=O)Nc2cc(-c3nc4cccnc4s3)ccc2C)c1`, the half-maximal activity concentration (AC50) under setting [2] was 12.6 µM [rising, partial curve, poor fit].

`CCC(C(=O)Nc1ccc(C(=O)OC)cc1)n1nc(-c2ccc(C)c(C)c2)ccc1=O` (stereo not given): the AC50 under setting [1] was 10 µM [falling, partial curve, poor fit]. As for `Nc1nc(SCC(=O)NC2CCCc3ccccc32)n[nH]1` (stereo not given), the AC50 under setting [2] is 0.158 µM [rising, partial curve].

Regarding `COc1ccc(F)cc1S(=O)(=O)n1nnc2ccccc21`, the AC50 under setting [1] is 4.47 µM [rising, single point]. As to `c1coc(CSCc2cn3cccnc3n2)c1`, under setting [2], the AC50 was 11.2 µM [rising, single point]. Take `COc1ccc2c(c1OC)C(=O)OC2C/C(=N\NC(N)=O)c1ccccc1` (stereo not given): the concentration at half-maximal activity (AC50) under setting [2] is 31.6 µM [rising, single point]. Take `CC(O)c1cccc(NC(=O)Cc2cccc3ccccc23)c1` (stereo not given): the concentration at half-maximal activity (AC50) is, setting by setting: under setting [1], 25.1 µM [falling, partial curve]; under setting [2], 0.0447 µM [falling, full curve, poor fit]. As for `Cc1ccccc1CS(=O)(=O)c1cn(CC(=O)N2CCC(C)CC2)c2ccccc12`, the AC50 under setting [2] was 0.00794 µM [rising, full curve, poor fit]. As for `COc1ccc(S(=O)(=O)Nc2ccc(O)c3ccccc23)cc1`, the concentration at half-maximal activity (AC50) is, setting by setting: under setting [1], 35.5 µM [falling, single point]; under setting [2], 28.2 µM [falling, single point]. For `CCOc1ccc2nc(C)cc(Nc3cccc([N+](=O)[O-])c3)c2c1`, the AC50 runs as follows: under setting [1], 14.1 µM [rising, partial curve, poor fit]; under setting [2], 25.1 µM [rising, single point]. Consider `COC(=O)c1c(NC(=O)C2COc3ccccc3O2)sc2c1CCN(Cc1ccccc1)C2` (stereo not given), for which, under setting [2], the concentration at half-maximal activity (AC50) is 8.91 µM [rising, partial curve, poor fit]. Regarding `CCC(C(=O)NCc1cccnc1)c1ccccc1` (stereo not given), under setting [1], the AC50 is 35.5 µM [rising, single point]. In the case of `CC(C)COC(=O)c1nnsc1NC(=O)Nc1ccccc1`, the half-maximal activity concentration (AC50) under setting [2] is 5.01 µM [rising, partial curve, poor fit]. For the compound `CCc1nc(NCc2cccnc2)c2oc3ccccc3c2n1`, the AC50 by setting is: under setting [1], 17.8 µM [rising, partial curve]; under setting [2], 22.4 µM [rising, partial curve]. In the case of `Cc1cc(C)c2c(c1)cc(C)c1nnc(SCC(=O)Nc3cc(C)on3)n12`, the half-maximal activity concentration (AC50) under setting [2] is 31.6 µM [rising, single point]. Take `C[C@@H]1CCc2cc(F)cc3c(=O)c(C(=O)O)cn1c23`: the AC50 under setting [1] is 12.6 µM [falling, partial curve, poor fit]. As for `CCc1ccc(S(=O)(=O)N(C(=O)c2ccncc2)c2ccc(OC(=O)c3ccncc3)cc2)cc1`, the AC50 runs as follows: under setting [1], 12.6 µM [rising, partial curve, poor fit]; under setting [2], 25.1 µM [rising, partial curve, poor fit]. `COc1ccc(/C=C/C(=O)Nc2ccc(-c3nnc4n3CCCCC4)cc2)c(OC)c1`: under setting [2], the concentration at half-maximal activity (AC50) was 35.5 µM [rising, single point]. As to `O=C(OCCN1CCCCC1)c1c[nH]c2ccccc12`, the AC50 under setting [1] was 0.0708 µM [rising, full curve, poor fit].

With `COc1ccc(N(CC(=O)NCc2ccc3c(c2)OCO3)C(=O)CCC(=O)Nc2ccccn2)cc1`, the AC50 is 0.0631 µM [rising, full curve, poor fit] under setting [1] and 2.24 µM [rising, single point] under setting [2].

For `O=C(NCC(c1cccnc1)N1CCc2ccccc21)c1ccc(F)cc1` (stereo not given), the AC50 under setting [1] is 5.62 µM [falling, partial curve].

With `O=C(/C=C/c1ccc(Cl)cc1)NC(=S)Nc1ccc(NC(=O)c2ccco2)cc1`, the AC50 reads like this: under setting [1], 0.891 µM [rising, full curve]; under setting [2], 1.78 µM [rising, full curve].

Usually AC50 stands for the midpoint of the concentration-response curve, whichever way the signal moves.
